Results are given in words; binding and its absence hold for the method and conditions named. Some results given as binding are weak or reduced against the parent protein; the word gives no strength. Values belong to the binder of their own block, whether it stands above or below them.
Assays:
Trop2 antigen = Trop2 antigen (UniProt P09758); assay: ELISA, antigen coated, anti-human IgG HRP detection
AXL antigen = AXL antigen (UniProt P30530); assay: as above

Protein sequences, listed by entry. Tags and fused reporters are not part of them. Residues count along the entry.
UniProt P09758, residues 27-274: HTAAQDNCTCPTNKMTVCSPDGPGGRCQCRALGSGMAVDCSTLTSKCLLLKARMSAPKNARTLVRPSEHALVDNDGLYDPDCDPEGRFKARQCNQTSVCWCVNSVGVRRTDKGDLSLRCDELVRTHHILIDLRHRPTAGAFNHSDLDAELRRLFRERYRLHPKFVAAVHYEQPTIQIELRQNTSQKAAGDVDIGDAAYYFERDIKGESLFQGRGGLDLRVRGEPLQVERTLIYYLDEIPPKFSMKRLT
UniProt P30530, residues 26-449: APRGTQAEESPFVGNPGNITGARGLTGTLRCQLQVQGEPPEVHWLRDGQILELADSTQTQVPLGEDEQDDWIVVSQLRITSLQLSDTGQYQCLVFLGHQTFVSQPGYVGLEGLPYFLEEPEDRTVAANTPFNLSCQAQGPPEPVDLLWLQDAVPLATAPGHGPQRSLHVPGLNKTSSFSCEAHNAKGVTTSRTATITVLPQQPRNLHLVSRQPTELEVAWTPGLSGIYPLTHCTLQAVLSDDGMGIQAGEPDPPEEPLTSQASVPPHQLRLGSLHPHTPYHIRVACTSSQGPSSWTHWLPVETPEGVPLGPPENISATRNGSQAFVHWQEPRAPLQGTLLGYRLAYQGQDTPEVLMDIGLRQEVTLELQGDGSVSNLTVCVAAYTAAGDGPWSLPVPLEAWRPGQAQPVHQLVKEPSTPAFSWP

binding (Trop2 antigen): binds
B1: anti-Trop2 antibody SG701 (antibody, human IgG1, kappa, V domains shown)
VH: QVQLVQSGAEVKKPGASVKVSCKASGYTFTNNYIHWVRQAPGQGLEWMGMINPSGGSTTYAQKFQGRLTMTRDTSTSTVYMDLSSLRSEDTAVYYCARAALSYYSIVTAKDYGMDVWGQGTTVTVSS
VL: DIQLTQSPSSVSASVGDRVNITCRASQGISSWLAWYQQKPGKAPKLLIYDASNLEAGVPSRFRGSGSGTDFTFTITSLQPEDIATYFCQQYGDFPLTFGQGTKLEIKR

binding (AXL antigen): binds
B2: anti-AXL antibody C6G12 (antibody, human IgG1, kappa, V domains shown)
VH: QVQLKQSGPGLVKPSQSLSLTCSVTGFSISSGYYWNWIRQFPGNKLEWMGYRSYDGSNNYNPSLKNRISITRDTSKNQFFLKLNSVTTEDTATYYCARGWLLHYTMDYWGQGTSVTVSS
VL: ELVMTQSPFSNAVTLGTSASISCRSSRSLLHSNGFTYLYWYLQKPGQSPQLLIYQMSNLASGVPDRFSSSGSGTDFTLRISRVEAEDVGVYYCGQNLELPLTFGAGTKLELKR
